{"source": "paper PMC6614801", "binders": {"B1": {"name": "SuhB (inositol mono-phosphatase SuhB), wild type, P0ADG4 1-267 (natural protein)", "chain": "MHPMLNIAVRAARKAGNLIAKNYETPDAVEASQKGSNDFVTNVDKAAEAVIIDTIRKSYPQHTIITEESGELEGTDQDVQWVIDPLDGTTNFIKRLPHFAVSIAVRIKGRTEVAVVYDPMRNELFTATRGQGAQLNGYRLRGSTARDLDGTILATGFPFKAKQYATTYINIVGKLFNECADFRRTGSAALDLAYVAAGRVDGFFEIGLRPWDFAAGELLVREAGGIVSDFTGGHNYMLTGNIVAGNPRVVKAMLANMRDELSDALKR"}}, "key": {"[1]": {"target": "T1, SuhB (inositol mono-phosphatase SuhB), wild type (E. coli), P0ADG4", "T1 chain": "B1 chain", "test": "crystal structure; isolated wt SuhB, 2.25 Å; one monomer in the asymmetric unit, dimer by crystal symmetry; both purified", "conditions": "remark: other sources report otherwise"}, "[2]": {"target": "T1, SuhB (inositol mono-phosphatase SuhB), …", "test": "crystal structure; SuhB-NusA^AR2 complex, 1.65 Å; two SuhB molecules and one NusA^AR2 in the asymmetric unit; both purified", "conditions": "remark: other sources report otherwise"}}, "note": "Results are given in words; binding and its absence hold for the method and conditions named. Some results given as binding are weak or reduced against the parent protein; the word gives no strength.", "data": [{"binder": "B1", "values": [{"measurement": "binding", "setting": "[1]", "result": "binds"}, {"measurement": "binding", "setting": "[2]", "result": "binds"}]}]}
